Assay results as given in paper PMC4630631.
Results are given in words; binding and its absence hold for the method and conditions named. Binding seen in cells or lysates may run through a third protein. Some entries that bind do so weakly or less than the wild type.

Chains of the proteins cited; added tags and fusions are not shown. Residues count along the entry.
UniProt P07356: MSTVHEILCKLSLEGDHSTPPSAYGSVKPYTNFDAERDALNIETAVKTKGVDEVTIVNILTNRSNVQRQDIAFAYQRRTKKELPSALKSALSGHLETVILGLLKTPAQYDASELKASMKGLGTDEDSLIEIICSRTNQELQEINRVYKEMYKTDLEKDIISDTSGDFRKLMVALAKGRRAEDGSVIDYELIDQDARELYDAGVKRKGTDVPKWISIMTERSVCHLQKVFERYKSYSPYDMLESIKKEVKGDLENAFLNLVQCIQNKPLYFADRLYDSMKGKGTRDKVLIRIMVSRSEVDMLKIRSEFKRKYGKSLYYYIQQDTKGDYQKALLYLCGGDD
UniProt Q8BJQ4: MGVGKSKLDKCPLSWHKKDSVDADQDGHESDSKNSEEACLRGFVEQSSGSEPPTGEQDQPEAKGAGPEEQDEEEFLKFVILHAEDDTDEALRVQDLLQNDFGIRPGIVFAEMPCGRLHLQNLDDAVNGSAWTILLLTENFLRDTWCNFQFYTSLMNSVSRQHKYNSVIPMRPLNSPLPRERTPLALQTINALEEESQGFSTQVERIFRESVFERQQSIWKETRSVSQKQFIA
UniProt Q9QUK6, residues 26-835: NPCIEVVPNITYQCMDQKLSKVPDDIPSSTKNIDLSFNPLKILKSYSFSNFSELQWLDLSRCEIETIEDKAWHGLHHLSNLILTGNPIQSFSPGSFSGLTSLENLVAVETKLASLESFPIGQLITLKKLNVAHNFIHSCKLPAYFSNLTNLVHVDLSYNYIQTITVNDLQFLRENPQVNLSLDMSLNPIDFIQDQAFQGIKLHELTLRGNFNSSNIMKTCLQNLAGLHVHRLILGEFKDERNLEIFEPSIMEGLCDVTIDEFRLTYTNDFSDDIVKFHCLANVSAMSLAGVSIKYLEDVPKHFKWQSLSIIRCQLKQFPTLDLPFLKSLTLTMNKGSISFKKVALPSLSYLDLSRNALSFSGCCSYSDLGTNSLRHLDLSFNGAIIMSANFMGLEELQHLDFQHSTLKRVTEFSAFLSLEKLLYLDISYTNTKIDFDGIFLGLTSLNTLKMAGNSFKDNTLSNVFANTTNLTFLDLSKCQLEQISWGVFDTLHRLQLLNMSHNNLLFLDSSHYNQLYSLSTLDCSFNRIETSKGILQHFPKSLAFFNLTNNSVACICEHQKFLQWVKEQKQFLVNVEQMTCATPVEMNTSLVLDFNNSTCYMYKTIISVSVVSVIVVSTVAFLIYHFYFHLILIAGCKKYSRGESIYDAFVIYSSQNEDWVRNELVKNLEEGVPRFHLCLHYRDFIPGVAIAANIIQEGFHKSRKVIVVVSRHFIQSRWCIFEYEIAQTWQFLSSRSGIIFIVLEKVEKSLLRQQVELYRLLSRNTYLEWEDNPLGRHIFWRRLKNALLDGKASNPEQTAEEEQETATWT

B1: TIR domain-containing adaptor-inducing IFN-β (protein, UniProt Q80UF7 1-732)
chain: MDNPGPSLRGAFGILGALERDRLTHLKHKLGSLCSGSQESKLLHAMVLLALGQDTEARVSLESLKMNTVAQLVAHQWADMETTEGPEEPPDLSWTVARLYHLLAEENLCPASTRDMAYQVALRDFASQGDHQLGQLQNEAWDRCSSDIKGDPSGFQPLHSHQGSLQPPSASPAVTRSQPRPIDTPDWSWGHTLHSTNSTASLASHLEISQSPTLAFLSSHHGTHGPSKLCNTPLDTQEPQLVPEGCQEPEEISWPPSVETSVSLGLPHEISVPEVSPEEASPILPDALAAPDTSVHCPIECTELSTNSRSPLTSTTESVGKQWPITSQRSPQVPVGDDSLQNTTSSSPPAQPPSLQASPKLPPSPLSSASSPSSYPAPPTSTSPVLDHSETSDQKFYNFVVIHARADEQVALRIREKLETLGVPDGATFCEEFQVPGRGELHCLQDAIDHSGFTILLLTASFDCSLSLHQINHALMNSLTQSGRQDCVIPLLPLECSQAQLSPDTTRLLHSIVWLDEHSPIFARKVANTFKTQKLQAQRVRWKKAQEARTLKEQSIQLEAERQNVAAISAAYTAYVHSYRAWQAEMNKLGVAFGKNLSLGTPTPSWPGCPQPIPSHPQGGTPVFPYSPQPPSFPQPPCFPQPPSFPQPPSFPLPPVSSPQSQSFPSASSPAPQTPGPQPLIIHHAQMVQLGVNNHMWGHTGAQSSDDKTECSENPCMGPLTDQGEPLLETPE

target: annexin A2 (mouse (endogenous in primary peritoneal macrophages)) (UniProt P07356); assay: co-IP; lysates of WT primary peritoneal macrophages stimulated for 0, 5 or 10 min with LPS; 1 ml lysate immunoprecipitated with 2 ug AnxA2 antibody (or IgG) and 10 ul protein A sepharose beads; blotted with anti-TLR4, anti-TRAM, anti-TRIF or anti-NAK

binding, binds:
TRIF-related adaptor molecule (from UniProt Q8BJQ4 1-232)
Toll-like receptor 4 (from UniProt Q9QUK6 26-835)
B1
